Measurements as given in publication PMC8483785, “The plant nuclear lamina proteins NMCP1 and NMCP2 form a filamentous network with lateral filament associations” (Journal of Experimental Botany, 2021).
No constants are given. Whether binding was seen depends on the method and setting. Some entries that bind do so weakly or less than the wild type. Tags and fused reporters may be left off the sequences shown.

Target: His-tagged DcNMCP2 (Daucus carota nuclear matrix constituent protein 2 with an N-terminal 6x His tag) (Daucus carota) (UniProt D2YZU8)
Test: transmission electron microscopy (low-angle rotary shadowing, negative staining); after refolding in H2O, dialysed against 20 mM Na acetate (pH 5.6) with or without 40 mM KCl, 1-16 h at 4 °C, to promote polymerization; dimers to filaments and filament bundles; both purified

- binding: binds weakly
B1: His-tagged DcNMCP2 (Daucus carota nuclear matrix constituent protein 2 with an N-terminal 6x His tag) (natural protein, UniProt D2YZU8 1-927, looked up)
chain: MASPRLTVIQSEKTTVTSSRVSRSSMSDDDIWKRLQEAGFDEDSIKRRDKASLIAYITKLEAEIYDHQYQMGLLIMERKEWGSKFERVEAALNSAELMRKHDKNLYLKDLAEAKKREENLKKAIEIERECLANIEKTLHELRAEYAETKVMADSKLVEARSMIEDALKKLSEADAKKHAAESLEAEASRYHSAAERKLHEVEAREDDLRRRATSFKTECDTKEEEILHERRLLNERQKALQQSQQRLVDGQDLLNKRESHIFERTQELNRKEKELEASKLKQEEELQALVEQQANLETKASSLSLREEVITKSELEVKKREEELCVLQEKLEKKESERIQQLLANYEASLSMKKSEFEAELEVKRKSVHDDIENKRRDWELREVDLHHREELILEKEHELEMQSRAVVDKERDLAGRFSLLEEKENRLHAVEKEIESKEALLQKEKEEIISSKLDIQRSLDALEDEKKQLHHAEEKMEAMKSETNELCVLESKLKEEIETIRAQKQELETEADEMKELKLKFEIEWQSIDEKRKELQKEAECINEQRESLELTLKDERNSLKLEKDAMRDEYMRNNESLSRDREDFMKKMEHERSEWFSKIQKERSDYLLAIEVQSKDLEDRLAKRREEIESYLAERERAFEEEKKKELMRMDTLRETLARETEQVNAELNRLDTERREINLDRERRDREWAELNTLIEELKVQRQKLEKQRELMRADKEEILVQIEHLKQLEDLKVVPDRIALTDIQQSDLQPSKRVSARRSLKRQSGLDSGCRAEDNGNASSGNGSVILSPPLSSPFSWLKRCASSLLEQKVSNKKMRHSEEIITPSTIPARLNAPDDEHAVISANQQTPVHAKETTVYIDKIITIREVTSFNDAIVDGNNQNLEEALSQRAEEKLEDDNNIESEKLEKNGEVDPKIMQASLTEQ
notes: Nuclear matrix constituent protein 2 (NMCP2) of Daucus carota; longest ORF of cDNA clone pD2m, amplified from the start codon to the stop codon; the PCR product included a 2808 bp ORF; GenBank AB514509; also called 6x His-tagged DcNMCP2; product of pDC2mN; not shown: His6, N-terminal, kept
